This note sets out measurements from patent CN111944047A.

The chains behind the UniProt entries cited, without tags or fusion partners. Where a name states a change or a piece, a line headed by the entry shows the natural chain unless it says otherwise. Residues count along the entry.
UniProt Q02223: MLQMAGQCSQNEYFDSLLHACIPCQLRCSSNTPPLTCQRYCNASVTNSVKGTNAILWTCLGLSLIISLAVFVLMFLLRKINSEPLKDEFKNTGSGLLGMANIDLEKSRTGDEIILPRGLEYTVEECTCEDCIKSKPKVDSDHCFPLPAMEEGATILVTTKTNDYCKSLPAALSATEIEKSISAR
hBCMA-hFc: residues 1-54 of Q02223

These are yes or no findings as the source states them, for the method shown. Some binding calls cover weakened binding; strength is not graded here.

Test [1] deals with hBCMA-hFc (human) (UniProt Q02223). The experiment in a line: Fortebio Octet K2 / Nicoya OpenSPR. On the technique in general: In BLI a coated tip is dipped into the sample, and binding shifts an interference pattern.
For test [2], the target named is BCMA on BCMA-positive MM1S cells (UniProt Q02223). The experiment in a line: His-tagged ScFv2 in 2 dilutions incubated with BCMA-positive MM1S and BCMA-negative K562 cells.

B1: ScFv1 (scFv)
scFv: DIVMTQSPDSLAVSLGERATINCRASESVSIHGTHLMHWYQQLPGTPPKLLIYAASNLESGVPDRFSGSGSGTDFTLKISPVEAEDVGVYYCQQSIEDPRTFGGGTKLEIKGSTSGSGKPGSGEGSTKGQVQLVQSGPALVKPGASVKVSCKASGYTFTDYYMNWVRQAHGQGLEWMGVINPYNGGTDYNQKFKGRVTMTRDTSISTAYMELSSLRSEDTAVYYCARSVYDYPFDYWGQGTLVTVSS
With B1, in test [1], the binding result is “binds”.

B2: ScFv2 (scFv)
scFv: DIVLTQSPASLAVSLGQRATITCRASESVSIHGTHLMHWYQQKPGQPPVLVIYAASNLESGVPARFSGSGSGTDFTLKIHPVEAEDVGVYYCQQSIEDPRTFGGGTKLEIKGSTSGSGKPGSGEGSTKGQVQLVQSGPEVKKPGASVKVSCKASGYTFTDYYMNWVRQMHGKGLEWMGVINPYNGGTDYNQKFKGRVTITADKSTSTAYMELSSLRSEDTAVYYCARSVYDYPFDYWGQGTLVTVSS
With B2, the binding result in test [1] and in test [2] was “binds” throughout.
